In US20210007977A1, “COMPOSITIONS AND METHODS OF AMELIORATING PHARMACEUTICAL AVERSIVENESS WITH SALTS” (Monell Chemical Senses Center, priority 2018, published 2021):

Assays:
Type in all cases: in vivo, human
[1] = Perceived sensation intensity (bitterness, sourness, astringency, nausea; gLMS): piperaquine vs. piperaquine neutralized with 1M KOH; conditions: 1M KOH vs. di water; 4-32 mg/mL
Text: (§1) Methods of evaluating the sensory properties in the Examples 2 to 4 were adopted from Breslin P A, and Tharp C D, “Reduction of saltiness and bitterness after a chlorhexidine rinse,” Chem Senses. 2001 February; 26(2):105-16. More details are illustrated below.
(§2) Subjects participated in the study after providing informed consent. Gender of the subjects was balanced between male and female. The subjects were adults with ages ranging from 20 years old to 50 years old. […] The participants were asked to refrain from eating, drinking, or chewing gum for 1 hr prior to testing. Subjects were trained to use the General Labeled Magnitude Scale (gLMS) following standard published procedures. See. e.g., Breslin P A, and Tharp C D. “Reduction of saltiness and bitterness after a chlorhexidine rinse,” Chem Senses. 2001 February; 26(2):105-16; Keast and Breslin, “Bitterness suppression with zinc sulfate and Na-cyclamate: a model of combined peripheral and central neural approaches to flavor modification.” Pharm Res. 2005 November; 22(11):1970-7. Epub 2005 Aug. 26; Green et al, “Evaluating the ‘Labeled Magnitude Scale’ for measuring sensations of taste and smell.” Chem Senses. 1996 June; 21(3):323-34; Barry G. Green, et al, “Derivation and evaluation of a semantic scale of oral sensation magnitude with apparent ratio properties,” Chemical Senses, Volume 18, Issue 6, 1 Dec. 1993, Pages 683-702; and Bartoshuk L M, “Comparing sensory experiences across individuals: recent psychophysical advances illuminate genetic variation in taste perception.” Chem Senses. 2000 August; 25(4):447-60.
(§3) Racemic praziquantel and L-praziquantel were diluted/dissolved in deionized (di) filtered water upon use into various concentrations, including 0.0019 mg/mL, 0.0056 mg/mL, 0.0169 mg/mL, 0.0507 mg/mL, and 0.152 mg/mL. Racemic praziquantel and L-praziquantel of the above indicated concentrations were also prepared in 100 mM Na Gluconate. Piperaquine was prepared and dissolved in deionized filtered water or in 1M KOH to a final concentration of 4 mg/mL, 8 mg/mL, 16 mg/mL, 26 mg/mL, or 32 mg/mL, respectively. All solutions were stored on ice or at 4° C. to 8° C. and brought up to room temperature prior to testing.
The following testing protocol was performed. The tested solutions were provided to the subjects in random order. Subjects rinsed with di water at least four times over a 2-minute period prior to tasting each solution. […] Taste intensity was recorded on a computerized gLMS, analyzed and plotted.
Ten (10) subjects were given piperaquine in di water or neutralized with 1M KOH, at final concentrations of 4 mg/mL, 8 mg/mL, 16 mg/mL, 26 mg/mL, and 32 mg/mL and assessed according to the protocols described in Example 1.

[2] = Perceived bitterness intensity (gLMS, rinse and spit): praziquantel in di water vs. in 100 mM Na Gluconate; conditions: for subjects reporting reduced bitterness in 100 mM Na Gluconate compared to that in di water: drug concentration 0.0507 mg/mL; for subjects reporting reduced bitterness in Na Gluconate compared to that in di water: drug concentration 0.152 mg/mL
Text: as §1, §2, §3
The following testing protocol was performed. The tested solutions were provided to the subjects in random order. Subjects rinsed with di water at least four times over a 2-minute period prior to tasting each solution. The subjects were instructed to wear nose clips to eliminate olfactory input, pour the whole solution in their mouth for 3-5 seconds, and rate the perceived sensation (including bitterness, sourness, astringency and nausea) intensity of the solution while it remained in the mouth, prior to expectorating. Taste intensity was recorded on a computerized gLMS, analyzed and plotted.
Seven subjects participated this study. 0.0019 mg/mL, 0.0056 mg/mL, 0.0169 mg/mL, 0.0507 mg/mL, and 0.152 mg/mL of racemic praziquantel in di water or in 100 mM Na Gluconate was prepared and provided to the subjects in random order according to the protocols described in Example 1.
Similarly, 7 subjects were given 0.0019 mg/mL, 0.0056 mg/mL, 0.0169 mg/mL, 0.0507 mg/mL, and 0.152 mg/mL of L-praziquantel in di water or in 100 mM Na Gluconate according to the protocols described in Example 1.

[3] = Perceived bitterness intensity (gLMS, rinse and spit): L-praziquantel vs. racemic praziquantel in di water
Text: as §1, §2
Racemic praziquantel and L-praziquantel were diluted/dissolved in deionized (di) filtered water upon use into various concentrations, including 0.0019 mg/mL, 0.0056 mg/mL, 0.0169 mg/mL, 0.0507 mg/mL, and 0.152 mg/mL. Racemic praziquantel and L-praziquantel of the above indicated concentrations were also prepared in 100 mM Na Gluconate. […]
The following testing protocol was performed. […] Taste intensity was recorded on a computerized gLMS, analyzed and plotted. […]

Compound	subjects in whom pH neutralization by adding KOH reduced astringency [1]	subjects in whom pH neutralization by adding KOH reduced bitterness [1]	subjects in whom pH neutralization by adding KOH reduced nausea [1]	subjects in whom pH neutralization by adding KOH reduced sourness [1]	subjects reporting reduced bitterness in 100 mM Na Gluconate compared to that in di water [2]	subjects reporting reduced bitterness in Na Gluconate compared to that in di water ([2]; 100 mM Na Gluconate)	subjects showing that Na Gluconate reduced bitterness of L-praziquantel ([2]; 100 mM Na Gluconate, at certain praziquantel concentrations, comparator printed as racemic praziquantel alone)	subjects reporting a reduced bitter intensity compared to that of racemic praziquantel ([3]; at certain concentrations (0.0019-0.152 mg/mL tested), adult subjects)	subjects scoring it less bitter compared to the racemic mixture ([3]; concentration 0.0507 mg/mL)	subjects reporting it less bitter (than racemic praziquantel) ([3]; concentration 0.152 mg/mL)
Clc1ccc2c(N3CCN(CCCN4CCN(c5ccnc6cc(Cl)ccc56)CC4)CC3)ccnc2c1 [piperaquine, Piperaquine]	10/10	10/10	5/10	9/10						
O=C(C1CCCCC1)N1CC(=O)N2CCc3ccccc3C2C1 (racemic) [racemic praziquantel, Praziquantel]					5 out of 7 subjects	6 out of 7 subjects				
O=C(C1CCCCC1)N1CC(=O)N2CCc3ccccc3[C@@H]2C1 [L-praziquantel, levo-praziquantel]					3 out of 7 subjects	4 out of 7 subjects	4 out of 7 subjects	10 out of 11 subjects	7 out of 11 subjects	8 out or 11 subjects
